{"source": "patent EP0058890A1", "about": "“Antithrombotic compounds” (THE WELLCOME FOUNDATION LIMITED, priority 1981, dated 1982)", "key": {"platelets [1]": {"system": "platelets", "assay": "Ex vivo platelet aggregation after oral dosing, arachidonate and collagen (method of Born), guinea pig", "format": "in vivo", "settings": "platelets taken 24 hours after dosing respond normally to aggregation stimuli", "description": "(§1) b. Ex vivo studies: The aggregation of platelets taken from animals dosed by the oral route with Compound II is inhibited when tested with arachidonate and collagen by the method of Born ((1962) Nature 194, 927, 929). The dose required to inhibit aggregation rate by 50% (ED50) at 1 hour was 5 mg/kg and 10 mg/kg in the guinea pig and rat, respectively. By comparison, the ED50 for aspirin in the guinea pig was 30 mg/kg, while the ED50 for aspirin in the rat was 10 mg/kg. The ED50 for indomethacin was 10 mg/kg and 5 mg/kg in the guinea pig and rat, respectively. In the dog, 10 mg/kg p.o. was an ED50 for as long as 6 hr."}, "platelets [2]": {"system": "platelets", "assay": "Ex vivo platelet aggregation after oral dosing, arachidonate and collagen (method of Born), rat", "format": "in vivo", "settings": "platelets taken 24 hours after dosing respond normally to aggregation stimuli", "description": "as §1"}}}
{"compound": "CC(=O)Oc1ccccc1C(=O)O", "note": "[aspirin]", "values": [{"measurement": "reversibility of inhibition of aggregation", "setting": "platelets [1]", "result": "unlike aspirin"}, {"measurement": "reversibility of inhibition of aggregation", "setting": "platelets [2]", "result": "unlike aspirin"}]}
{"compound": "COc1ccc2c(c1)c(CC(=O)O)c(C)n2C(=O)c1ccc(Cl)cc1", "note": "[indomethacin]", "values": [{"measurement": "reversibility of inhibition of aggregation", "setting": "platelets [1]", "result": "reversible"}, {"measurement": "reversibility of inhibition of aggregation", "setting": "platelets [2]", "result": "reversible"}]}
